Test [1] is described as follows: wild-type E. coli growth inhibition versus h38 humanized strain – h38 mutant RFP, wild-type GFP, cherry-pick, dose response (AID 977622). The settings on record: E. coli mixed culture, 24 h, total growth OD600 at 50 uM.
The subject of test [2] is E. coli h38 humanized mutant ribosome RFP fluorescence, mixed culture, 24 h. Described as above. The following applies: h38 mutant RFP at 50 uM.

Data on 55 compounds can be found in PubChem BioAssay AID977622 (Broad Institute, 2014).

The list shows a part of the results. Further columns of the screen follow, without active or inactive calls.

For the compound `CN(C)C(CNS(=O)(=O)c1cc([N+](=O)[O-])ccc1Cl)c1ccco1` (stereo not drawn), the activity change was -18.5% in test [1] and 33.4% in test [2].
On the same counts, the results for `COc1cccc(S(=O)(=O)N2CCCCN3[C@H](C2)[C@H](c2ccc(C#CC(C)C)cc2)[C@@H]3CO)c1` are -29.1% and 0.063%.
On the same counts, the results for `COc1cccc(S(=O)(=O)N2CCCCN3[C@H](CO)[C@@H](c4ccc(C#CC(C)C)cc4)[C@H]3C2)c1` are -92.8% and 7.36%.
Consider `CO[C@@H]1CN(C)C(=O)c2cc(NC(=O)C3CCCC3)ccc2OC[C@@H](C)N(C(=O)Nc2ccc(C(F)(F)F)cc2)C[C@H]1C`, for which the activity change in test [1] was -51%; in test [2], 82.6%.
On the same counts, the results for `C[C@@H]1CCCCO[C@@H](CN(C)C)[C@H](C)CN([C@H](C)CO)C(=O)c2cc(NC(=O)Nc3cccc4ccccc34)ccc2O1` are 5.53% and 13.8%.
`CC1(C(=O)NS(=O)(=O)c2cccc(F)c2)CCN1C(=O)C1(c2ccc(Cl)cc2)CCC1` (stereo not drawn): the activity change in test [1] was -18.6%; in test [2], 101%.
`CC(C)Cc1nnc(NS(=O)(=O)c2ccccc2)s1`: the results for the activity change in test [1] and in test [2] were -32.6% and -5.12%, respectively.
On the same counts, the results for `COc1ccc(-c2ccccc2)cc1NC(=O)c1ccncc1` are -9.8% and 5.37%.
`CCN(CC(=O)Nc1ccccc1OC)CC(=O)Nc1c(Cl)ccc(C)c1Cl`: the values for the activity change in test [1] and in test [2] were -26.6% and 6.83%, respectively.
On the same counts, the results for `O=C(Nc1ccn(Cc2ccc(Cl)cc2)n1)c1ccccc1` are -7.6% and -4.68%.
As to `O=C1CC[C@@H](CN(Cc2ccccc2)Cc2cn[nH]c2-c2cc3ccccc3o2)N1`, the activity change in test [1] is -93.5%; in test [2] it was -22.7%.
On the same counts, the results for `CC1=Nc2cc(C(=O)NCC3CCCO3)ccc2Sc2ccc(Br)cc21` (stereo not drawn) are -55.4% and -13.4%.
As to `O=C(Nc1ccc(Cl)cn1)c1cc2c(s1)-c1ccccc1OC2`, the activity change in test [1] was -5.82%; in test [2], -3.75%.
On the same counts, the results for `O=C(CCC(=O)N1CCN(c2ccc(F)cc2)CC1)c1ccc(F)cc1` are -3.71% and -8.05%.
On the same counts, the results for `COc1ccc(C(=O)N(c2ccccc2)c2nccc3ccccc23)cc1OC` are -30.2% and 10.3%.
On the same counts, the results for `Cc1ccc(CCN2C(=O)c3ccccc3C2C(=O)NCc2cccnc2)cc1` (stereo not drawn) are 6.22% and 33.7%.
On to `CC1(C(=O)Nc2ccc3c(c2)OCCO3)CSCC(=O)N1CCOc1ccccc1` (stereo not drawn), for which the activity change is -6.58% in test [1] and 5.03% in test [2].
On the same counts, the results for `COc1ccc(C2CC(c3ccc(Br)cc3)=NN2C(=O)CN2CCCC2)cc1` (stereo not drawn) are 2.17% and 28.8%.
On the same counts, the results for `CN(C)C(=O)C1C2NC(=S)N(c3cccc(Cl)c3)C1(C)Oc1ccc(Cl)cc12` (stereo not drawn) are -17.5% and 1.75%.
On the same counts, the results for `O=C(O)c1ccccc1NC(=O)C(c1ccccc1)c1ccccc1` are -26.5% and 8.05%.
With `O=C(O)c1ccc(COc2ccc3ccccc3c2)o1`, the activity change in test [1] is -28.4%; in test [2], 0.92%.
Take `S=c1[nH]c2cc(Cl)ccc2s1`: the activity change in test [1] was -54.3%; in test [2] it was -24.5%.
On to `Nc1ccc(C(=O)OCCc2ccccc2)cc1`, for which the activity change was -21.4% in test [1] and -9.11% in test [2].
As to `CSc1cccc(NC(=O)CSc2nc3ccccc3o2)c1`, the figures for the activity change in test [1] and in test [2] were -77% and 23.1%, respectively.
On the same counts, the results for `Cc1ccc(-c2csc(NC(=O)CCNC(=O)c3ccco3)n2)cc1` are -94% and 16.8%.
On the same counts, the results for `O=C(Cc1cccc(NC(=O)C2CCCN(C(=O)CCc3ccccc3)C2)c1)Nc1cccc(C(=O)N2CCCCC2)c1` (stereo not drawn) are -24.4% and 9.69%.
On the same counts, the results for `Cn1c(SCC(=O)Nc2ccccc2-c2ccccc2)nnc1-c1ccco1` are -19.5% and -8.01%.
With `CNC(=O)c1sc(-c2ccccn2)nc1C`, the activity change was -3.82% in test [1] and 21.6% in test [2].
On the same counts, the results for `C[C@@H]1CCCCO[C@@H](CN(C)C(=O)CCCN(C)C)[C@H](C)CN([C@@H](C)CO)C(=O)c2cc(NC(=O)Nc3cccc4ccccc34)ccc2O1` are -42.5% and 18.2%.
On the same counts, the results for `O=C(Nc1ccccc1)N1C[C@@H]2[C@H](c3ccccc31)[C@@H](CO)N2C(=O)Cc1ccccn1` are -38.9% and 72.5%.
On the same counts, the results for `COc1ccc2sc(N3C(=O)CC(Cc4cccc(C)c4)C3=O)nc2c1` (stereo not drawn) are -78.9% and -19.9%.
For `CC(C)(C)CC(=O)Nc1ccccc1N1CCN(c2ccccc2)CC1`, the results for the activity change in test [1] and in test [2] were -27.6% and 28.9%, respectively.
On the same counts, the results for `O=S(=O)(NCC1CCCO1)c1ccc(-c2ccc(Cl)cc2)cc1` (stereo not drawn) are -64.3% and -37.4%.
On the same counts, the results for `CC(=O)Nc1ccc(Nc2nc(C)c([N+](=O)[O-])c(N(C)c3ccccc3)n2)cc1` are -64.4% and -18.9%.
On the same counts, the results for `N#Cc1c(Cl)cccc1Oc1ccc(S(=O)(=O)Nc2ccccc2)cc1` are -97.6% and -57.4%.
In the case of `Cc1[nH]nc2c1C(c1ccc(Br)cc1)N(Cc1ccccc1)C2=O` (stereo not drawn), the figures for the activity change in test [1] and in test [2] were -79.2% and -38.1%, respectively.
On the same counts, the results for `Cn1c(=O)c2c(-c3ccccc3)n(-c3cc([N+](=O)[O-])ccc3N)cc2n(C)c1=O` are -6.53% and -20.5%.
On the same counts, the results for `COc1ccccc1NS(=O)(=O)c1cc(NC(=O)CNC(=O)c2ccccc2)ccc1C` are -70% and -16.4%.
On the same counts, the results for `CCOc1ccc2oc(C(=O)NC3CCN(Cc4ccccc4)CC3)c(C)c2c1` are -20.6% and 12.3%.
Turning to `CCOc1ccc(OCCn2c(=S)[nH]c3c(N)ncnc32)cc1`, the figures for the activity change in test [1] and in test [2] were -49.8% and 56.2%, respectively.
On the same counts, the results for `COc1ccc(OC2C(=O)N(Cc3ccc4c(c3)OCO4)C2c2cccs2)cc1` (stereo not drawn) are -36.6% and 33.2%.
On the same counts, the results for `COc1ccc(-c2nnc(COc3ccc(Br)cc3C)o2)cc1` are -49.8% and -11.2%.
On the same counts, the results for `C=CCn1c(SCC(=O)Nc2ccc3c(c2)OCCO3)nnc1-c1ccco1` are -15.1% and 12.9%.
For `COc1ccccc1CN1Cc2ccccc2Oc2ccccc2S1(=O)=O`, the activity change in test [2] is -13.1%.
In the case of `CCC(C(=O)NC1CCCC1)n1c(-c2ccnc3ccccc23)nc2ccccc21` (stereo not drawn), the activity change in test [1] is -37.9%; in test [2] it was -22.9%.
On the same counts, the results for `CN(CCOc1ccccc1)C(=O)c1ccc(OC2CCN(C(=O)C3CC3)CC2)cc1` are -36.7% and -2.08%.
On the same counts, the results for `CN(C)CCCN(C(=O)CCSc1ccccc1)c1nc2cc3c(cc2s1)OCO3` are -28% and 6.54%.
On the same counts, the results for `CC(C)Sc1sc(C(=O)O)c(-c2ccc(Cl)cc2)c1C#N` are -88.4% and -13%.
With `COc1ccc(CNS(=O)(=O)c2ccc3c(c2)NC(=O)C(C)S3)cc1` (stereo not drawn), the activity change in test [1] is -34.3%; in test [2], -26.2%.
On the same counts, the results for `O=C(Nc1cc(F)ccc1F)N1C[C@@H]2[C@H](c3ccccc31)[C@H](CO)N2Cc1ccncc1` are -92.6% and -10.5%.
Regarding `CCOc1ccc(S(=O)(=O)N(C)c2ccc(OCC(=O)Nc3ccc4[nH]c(=O)[nH]c4c3)cc2)cc1`, the activity change in test [1] is -49.8%; in test [2], 1.75%.
On the same counts, the results for `Cc1cccc(NC(=O)COc2cccc3c2CCNC3=O)c1` are 15.2% and 12%.
`O=C(NCCCN1CCOCC1)c1sc2cc([N+](=O)[O-])ccc2c1Cl`: the activity change in test [1] is 1.03%.
Take `O=C(CCCn1c(=S)[nH]c2ccsc2c1=O)Nc1ccc2c(c1)OCCO2`: the activity change in test [1] was -58.3%; in test [2] it was -5.85%.
In the case of `COC(=O)c1sccc1NC(=O)Cn1nnc(-c2ccccc2C)n1`, the activity change is -38.9% in test [1] and -12.2% in test [2].
